Experimental data as given in doi:10.1101/2025.09.03.674114.
No constants are given. Whether binding was seen depends on the method and setting. In cells and extracts the contact can be indirect. Some binding calls cover weakened binding; strength is not graded here.

Protein sequences, listed by entry. Tags and fused reporters are not part of them.
UniProt Q5S007: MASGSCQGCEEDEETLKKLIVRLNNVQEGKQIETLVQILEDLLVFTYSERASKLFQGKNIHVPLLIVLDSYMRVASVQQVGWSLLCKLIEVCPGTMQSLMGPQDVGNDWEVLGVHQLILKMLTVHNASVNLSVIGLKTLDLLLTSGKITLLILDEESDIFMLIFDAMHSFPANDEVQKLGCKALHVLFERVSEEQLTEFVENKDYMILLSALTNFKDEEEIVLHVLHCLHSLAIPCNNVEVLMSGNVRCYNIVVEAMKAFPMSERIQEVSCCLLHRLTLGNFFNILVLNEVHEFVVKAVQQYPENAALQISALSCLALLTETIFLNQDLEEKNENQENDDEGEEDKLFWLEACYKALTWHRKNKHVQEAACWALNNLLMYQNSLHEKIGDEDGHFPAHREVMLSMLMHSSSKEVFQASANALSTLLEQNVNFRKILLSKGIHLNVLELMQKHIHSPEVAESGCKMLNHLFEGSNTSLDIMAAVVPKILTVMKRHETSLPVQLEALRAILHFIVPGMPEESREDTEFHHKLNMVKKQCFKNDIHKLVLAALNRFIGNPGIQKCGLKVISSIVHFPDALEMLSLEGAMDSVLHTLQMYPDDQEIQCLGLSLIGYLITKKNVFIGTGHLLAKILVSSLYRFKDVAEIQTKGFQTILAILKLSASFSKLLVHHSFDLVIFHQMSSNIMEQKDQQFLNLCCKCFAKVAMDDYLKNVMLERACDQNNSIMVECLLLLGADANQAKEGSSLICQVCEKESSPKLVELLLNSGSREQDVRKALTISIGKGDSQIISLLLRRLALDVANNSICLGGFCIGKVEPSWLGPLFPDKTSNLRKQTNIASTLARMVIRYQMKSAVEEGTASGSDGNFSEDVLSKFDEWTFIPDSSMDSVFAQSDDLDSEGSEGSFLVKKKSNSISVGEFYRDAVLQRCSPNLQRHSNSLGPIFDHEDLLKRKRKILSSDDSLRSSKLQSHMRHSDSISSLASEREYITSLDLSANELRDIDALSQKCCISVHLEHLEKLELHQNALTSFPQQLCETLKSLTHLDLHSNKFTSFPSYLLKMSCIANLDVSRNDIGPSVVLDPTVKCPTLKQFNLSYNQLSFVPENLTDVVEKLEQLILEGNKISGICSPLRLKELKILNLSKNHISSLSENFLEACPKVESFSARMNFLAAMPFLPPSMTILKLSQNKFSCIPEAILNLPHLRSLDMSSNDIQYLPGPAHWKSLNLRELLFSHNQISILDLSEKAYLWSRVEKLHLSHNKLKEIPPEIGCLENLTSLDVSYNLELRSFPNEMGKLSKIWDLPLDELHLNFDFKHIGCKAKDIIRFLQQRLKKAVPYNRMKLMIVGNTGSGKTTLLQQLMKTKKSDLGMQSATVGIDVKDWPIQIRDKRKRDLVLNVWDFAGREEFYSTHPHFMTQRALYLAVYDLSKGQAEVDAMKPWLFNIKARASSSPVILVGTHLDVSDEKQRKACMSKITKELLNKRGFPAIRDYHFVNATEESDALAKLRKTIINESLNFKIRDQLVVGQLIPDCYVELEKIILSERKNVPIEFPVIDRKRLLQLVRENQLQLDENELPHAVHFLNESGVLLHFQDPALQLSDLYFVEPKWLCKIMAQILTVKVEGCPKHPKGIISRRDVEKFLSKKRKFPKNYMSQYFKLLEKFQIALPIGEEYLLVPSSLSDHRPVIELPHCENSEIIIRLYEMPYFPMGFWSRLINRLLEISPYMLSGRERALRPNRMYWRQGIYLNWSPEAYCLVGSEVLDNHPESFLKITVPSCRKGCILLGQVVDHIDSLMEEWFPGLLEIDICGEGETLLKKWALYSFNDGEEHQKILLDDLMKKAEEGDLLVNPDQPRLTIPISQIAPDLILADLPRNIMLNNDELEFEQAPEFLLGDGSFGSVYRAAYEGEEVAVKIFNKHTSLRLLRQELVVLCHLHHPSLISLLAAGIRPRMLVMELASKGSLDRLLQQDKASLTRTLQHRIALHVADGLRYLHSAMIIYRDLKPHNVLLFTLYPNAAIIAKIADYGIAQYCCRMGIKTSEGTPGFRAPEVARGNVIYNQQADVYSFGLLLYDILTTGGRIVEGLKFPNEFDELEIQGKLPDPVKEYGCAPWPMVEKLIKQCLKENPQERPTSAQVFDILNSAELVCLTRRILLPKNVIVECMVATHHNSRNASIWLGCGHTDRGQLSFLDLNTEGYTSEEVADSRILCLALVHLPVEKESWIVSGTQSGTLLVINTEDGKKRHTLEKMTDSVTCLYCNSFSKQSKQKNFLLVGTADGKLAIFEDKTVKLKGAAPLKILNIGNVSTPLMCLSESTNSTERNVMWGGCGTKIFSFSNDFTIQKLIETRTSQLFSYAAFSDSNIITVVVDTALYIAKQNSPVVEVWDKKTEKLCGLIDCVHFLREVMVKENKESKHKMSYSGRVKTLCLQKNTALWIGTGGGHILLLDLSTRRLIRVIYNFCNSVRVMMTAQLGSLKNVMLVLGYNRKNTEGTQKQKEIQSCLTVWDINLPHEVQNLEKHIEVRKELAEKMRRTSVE
UniProt Q8IY33: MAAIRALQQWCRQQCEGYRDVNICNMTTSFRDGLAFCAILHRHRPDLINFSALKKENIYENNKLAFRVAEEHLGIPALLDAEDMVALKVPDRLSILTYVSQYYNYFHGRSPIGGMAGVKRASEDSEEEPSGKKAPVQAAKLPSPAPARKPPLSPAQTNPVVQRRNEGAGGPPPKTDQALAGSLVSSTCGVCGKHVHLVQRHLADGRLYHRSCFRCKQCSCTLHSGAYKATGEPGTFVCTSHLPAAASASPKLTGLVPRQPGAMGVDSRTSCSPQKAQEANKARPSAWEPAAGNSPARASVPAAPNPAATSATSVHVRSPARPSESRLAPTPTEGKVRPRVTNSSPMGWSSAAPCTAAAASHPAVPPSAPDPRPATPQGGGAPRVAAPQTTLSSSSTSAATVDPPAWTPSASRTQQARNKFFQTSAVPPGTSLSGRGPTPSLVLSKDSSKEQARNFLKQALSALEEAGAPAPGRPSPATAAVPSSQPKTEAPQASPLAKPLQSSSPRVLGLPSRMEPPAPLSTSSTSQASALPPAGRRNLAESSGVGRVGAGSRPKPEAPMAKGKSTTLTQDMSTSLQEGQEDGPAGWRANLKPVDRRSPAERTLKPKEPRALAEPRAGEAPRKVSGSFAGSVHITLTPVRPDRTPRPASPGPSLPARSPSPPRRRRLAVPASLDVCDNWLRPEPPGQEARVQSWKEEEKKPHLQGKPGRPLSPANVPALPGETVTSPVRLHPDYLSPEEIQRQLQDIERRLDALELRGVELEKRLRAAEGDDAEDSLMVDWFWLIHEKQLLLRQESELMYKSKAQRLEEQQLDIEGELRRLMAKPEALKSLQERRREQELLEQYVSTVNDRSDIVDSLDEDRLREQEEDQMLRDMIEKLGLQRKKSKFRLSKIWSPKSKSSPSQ

Target: 3xFLAG-turboID-LRRK2 (Leucine-rich repeat kinase 2) (UniProt Q5S007)
Assay: co-IP

## C-terminally HA-tagged MICALL2 (from UniProt Q8IY33 1-904)
  binding: binds
